No constants are given. Whether binding was seen depends on the method and setting. For some of these results: Binding seen in cells or lysates may run through a third protein. Some binding calls cover weakened binding; strength is not graded here.
How the values were obtained:
[1] = biological target: human plasma fibronectin (human) (UniProt P02751); assay: solid phase and pepspot assays (discussion)
[2] = biological target: human plasma fibronectin (human) (UniProt P02751); assay: solid phase binding assay, biotinylated CBD 5 µg/ml; inhibited by PPC
[3] = biological target: T1, αVβ5 integrin of HT1080 cells (human) (UniProt P06756+P18084); assay: co-immunoprecipitation with anti-integrin cytoplasmic domain antisera, western blot
[4] = biological target: T1, αVβ5 integrin of HT1080 cells (human); assay: co-immunoprecipitation from HT1080 cells (discussion)

Chains of the proteins cited; added tags and fusions are not shown. Lines headed by an entry give the natural chain unless they say otherwise; changes in a name come on top. A line that says so, or that is headed by a name, gives the form on record, which may keep a tag or linker.
human plasma fibronectin (P02751, form named): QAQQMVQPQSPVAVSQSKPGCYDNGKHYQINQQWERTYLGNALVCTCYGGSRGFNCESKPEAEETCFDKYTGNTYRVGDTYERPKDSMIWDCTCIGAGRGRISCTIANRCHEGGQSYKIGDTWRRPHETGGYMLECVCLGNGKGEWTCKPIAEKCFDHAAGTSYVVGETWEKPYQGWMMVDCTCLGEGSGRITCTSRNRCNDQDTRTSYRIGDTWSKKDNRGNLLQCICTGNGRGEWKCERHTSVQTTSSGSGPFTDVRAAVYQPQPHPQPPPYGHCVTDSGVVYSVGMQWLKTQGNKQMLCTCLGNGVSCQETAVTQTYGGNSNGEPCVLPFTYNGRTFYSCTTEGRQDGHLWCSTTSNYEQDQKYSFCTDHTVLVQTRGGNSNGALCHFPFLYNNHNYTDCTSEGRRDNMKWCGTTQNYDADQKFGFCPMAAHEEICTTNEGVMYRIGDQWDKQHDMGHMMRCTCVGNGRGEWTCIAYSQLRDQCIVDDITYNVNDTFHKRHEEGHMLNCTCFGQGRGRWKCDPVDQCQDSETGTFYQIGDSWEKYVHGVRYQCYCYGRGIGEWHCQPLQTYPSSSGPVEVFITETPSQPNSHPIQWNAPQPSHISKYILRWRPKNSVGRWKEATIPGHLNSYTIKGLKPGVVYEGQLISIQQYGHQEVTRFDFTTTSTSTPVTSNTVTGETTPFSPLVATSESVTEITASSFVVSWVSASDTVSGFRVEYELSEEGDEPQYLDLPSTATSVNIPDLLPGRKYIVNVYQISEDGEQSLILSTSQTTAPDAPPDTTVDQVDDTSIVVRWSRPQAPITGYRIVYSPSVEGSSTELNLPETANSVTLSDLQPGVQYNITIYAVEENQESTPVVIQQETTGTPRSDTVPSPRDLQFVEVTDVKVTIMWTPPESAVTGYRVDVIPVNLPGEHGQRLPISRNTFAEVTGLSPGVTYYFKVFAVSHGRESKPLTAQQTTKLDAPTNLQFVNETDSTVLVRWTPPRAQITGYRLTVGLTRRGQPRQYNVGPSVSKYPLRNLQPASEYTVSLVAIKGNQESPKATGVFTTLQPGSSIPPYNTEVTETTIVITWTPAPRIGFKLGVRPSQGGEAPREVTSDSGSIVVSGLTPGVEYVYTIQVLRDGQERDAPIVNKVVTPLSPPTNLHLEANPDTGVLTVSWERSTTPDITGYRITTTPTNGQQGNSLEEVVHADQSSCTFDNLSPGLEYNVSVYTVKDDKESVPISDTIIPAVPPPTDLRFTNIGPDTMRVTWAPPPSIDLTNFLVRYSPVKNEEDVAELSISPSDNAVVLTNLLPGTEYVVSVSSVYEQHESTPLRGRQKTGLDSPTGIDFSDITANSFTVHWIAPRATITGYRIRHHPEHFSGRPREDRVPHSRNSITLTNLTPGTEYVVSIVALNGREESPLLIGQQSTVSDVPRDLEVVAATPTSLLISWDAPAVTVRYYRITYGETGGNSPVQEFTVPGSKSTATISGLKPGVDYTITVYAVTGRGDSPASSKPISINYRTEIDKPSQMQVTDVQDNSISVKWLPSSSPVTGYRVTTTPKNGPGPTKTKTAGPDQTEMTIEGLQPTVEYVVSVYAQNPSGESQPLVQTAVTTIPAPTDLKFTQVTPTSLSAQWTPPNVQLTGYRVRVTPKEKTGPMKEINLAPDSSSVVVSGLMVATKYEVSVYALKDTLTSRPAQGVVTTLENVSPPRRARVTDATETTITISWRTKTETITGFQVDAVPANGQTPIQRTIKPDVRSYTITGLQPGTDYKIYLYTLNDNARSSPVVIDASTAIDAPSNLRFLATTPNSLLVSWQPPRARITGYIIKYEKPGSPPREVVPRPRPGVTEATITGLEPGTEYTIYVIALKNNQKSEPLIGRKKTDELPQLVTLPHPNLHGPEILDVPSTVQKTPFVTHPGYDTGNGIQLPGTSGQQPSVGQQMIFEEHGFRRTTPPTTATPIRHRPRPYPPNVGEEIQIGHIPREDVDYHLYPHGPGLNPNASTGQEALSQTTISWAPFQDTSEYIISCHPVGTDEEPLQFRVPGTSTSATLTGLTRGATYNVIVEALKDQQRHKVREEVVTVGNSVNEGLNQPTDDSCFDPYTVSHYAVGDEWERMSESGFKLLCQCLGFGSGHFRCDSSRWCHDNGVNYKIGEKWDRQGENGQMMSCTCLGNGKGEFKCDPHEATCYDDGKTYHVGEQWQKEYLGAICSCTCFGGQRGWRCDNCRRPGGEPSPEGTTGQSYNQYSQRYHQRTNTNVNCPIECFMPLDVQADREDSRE
UniProt P06756: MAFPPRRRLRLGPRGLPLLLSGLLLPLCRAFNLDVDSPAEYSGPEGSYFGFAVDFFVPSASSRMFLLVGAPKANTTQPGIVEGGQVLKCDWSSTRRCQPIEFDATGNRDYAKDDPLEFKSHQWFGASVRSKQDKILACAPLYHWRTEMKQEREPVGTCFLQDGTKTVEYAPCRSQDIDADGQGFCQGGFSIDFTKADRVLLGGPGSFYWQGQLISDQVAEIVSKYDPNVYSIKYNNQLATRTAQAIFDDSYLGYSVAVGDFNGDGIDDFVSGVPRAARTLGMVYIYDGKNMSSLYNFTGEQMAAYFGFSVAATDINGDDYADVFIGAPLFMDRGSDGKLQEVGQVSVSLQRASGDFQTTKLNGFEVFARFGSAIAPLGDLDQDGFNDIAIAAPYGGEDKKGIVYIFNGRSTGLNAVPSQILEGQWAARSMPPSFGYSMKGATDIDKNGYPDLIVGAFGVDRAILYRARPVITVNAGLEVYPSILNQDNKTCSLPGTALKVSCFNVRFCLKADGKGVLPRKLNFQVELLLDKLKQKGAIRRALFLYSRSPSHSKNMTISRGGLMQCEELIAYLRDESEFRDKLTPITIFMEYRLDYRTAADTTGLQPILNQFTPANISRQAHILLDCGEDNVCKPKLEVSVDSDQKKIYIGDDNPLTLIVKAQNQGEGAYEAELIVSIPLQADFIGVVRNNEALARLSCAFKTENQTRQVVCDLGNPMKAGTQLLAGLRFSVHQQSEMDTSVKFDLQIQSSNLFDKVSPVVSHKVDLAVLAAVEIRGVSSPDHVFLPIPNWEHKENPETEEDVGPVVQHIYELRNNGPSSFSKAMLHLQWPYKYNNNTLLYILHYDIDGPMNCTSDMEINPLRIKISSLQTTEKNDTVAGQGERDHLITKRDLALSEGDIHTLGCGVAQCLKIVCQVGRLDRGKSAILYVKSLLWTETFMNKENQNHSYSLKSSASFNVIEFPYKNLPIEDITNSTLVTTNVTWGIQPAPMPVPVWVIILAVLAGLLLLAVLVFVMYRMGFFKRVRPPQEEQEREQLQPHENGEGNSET
UniProt P18084: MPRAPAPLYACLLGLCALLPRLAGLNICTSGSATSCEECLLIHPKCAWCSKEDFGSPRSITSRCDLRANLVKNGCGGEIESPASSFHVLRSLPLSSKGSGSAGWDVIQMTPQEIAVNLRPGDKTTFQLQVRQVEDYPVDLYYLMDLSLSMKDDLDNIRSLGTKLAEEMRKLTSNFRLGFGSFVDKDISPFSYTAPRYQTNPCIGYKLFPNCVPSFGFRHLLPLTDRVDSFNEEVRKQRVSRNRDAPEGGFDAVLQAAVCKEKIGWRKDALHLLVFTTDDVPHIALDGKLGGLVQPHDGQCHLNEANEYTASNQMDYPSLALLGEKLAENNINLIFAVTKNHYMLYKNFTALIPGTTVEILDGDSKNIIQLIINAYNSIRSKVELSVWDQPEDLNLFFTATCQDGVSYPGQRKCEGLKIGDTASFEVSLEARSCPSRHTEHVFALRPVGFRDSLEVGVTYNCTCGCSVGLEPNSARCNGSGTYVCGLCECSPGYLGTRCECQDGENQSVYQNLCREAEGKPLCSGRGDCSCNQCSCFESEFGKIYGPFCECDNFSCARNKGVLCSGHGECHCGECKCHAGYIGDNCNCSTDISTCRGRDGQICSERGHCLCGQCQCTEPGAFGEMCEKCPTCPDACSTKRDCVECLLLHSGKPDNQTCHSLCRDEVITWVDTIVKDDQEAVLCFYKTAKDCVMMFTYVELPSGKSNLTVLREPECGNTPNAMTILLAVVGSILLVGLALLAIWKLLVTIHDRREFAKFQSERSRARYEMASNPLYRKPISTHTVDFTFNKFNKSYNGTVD
UniProt P14780: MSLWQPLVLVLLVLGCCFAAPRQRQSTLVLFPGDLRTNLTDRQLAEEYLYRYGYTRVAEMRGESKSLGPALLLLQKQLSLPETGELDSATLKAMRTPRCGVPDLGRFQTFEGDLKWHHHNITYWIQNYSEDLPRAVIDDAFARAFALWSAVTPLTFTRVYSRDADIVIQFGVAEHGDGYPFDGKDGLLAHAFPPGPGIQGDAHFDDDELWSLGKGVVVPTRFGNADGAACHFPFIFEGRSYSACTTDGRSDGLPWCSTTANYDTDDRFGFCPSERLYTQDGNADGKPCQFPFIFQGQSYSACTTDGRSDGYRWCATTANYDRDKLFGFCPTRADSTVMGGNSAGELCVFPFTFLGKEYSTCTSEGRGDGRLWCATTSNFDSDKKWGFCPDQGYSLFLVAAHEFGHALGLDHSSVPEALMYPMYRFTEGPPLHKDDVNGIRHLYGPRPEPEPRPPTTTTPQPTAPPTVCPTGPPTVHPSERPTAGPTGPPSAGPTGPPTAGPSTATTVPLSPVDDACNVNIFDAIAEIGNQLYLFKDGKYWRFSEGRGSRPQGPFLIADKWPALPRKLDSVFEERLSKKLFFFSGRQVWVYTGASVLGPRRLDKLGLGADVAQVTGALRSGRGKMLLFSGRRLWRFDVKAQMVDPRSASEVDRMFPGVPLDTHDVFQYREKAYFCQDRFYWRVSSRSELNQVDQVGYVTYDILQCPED

Substance | binding [1] | binding [2] | binding [3] | binding [4]
MMP-9 collagen binding domain (CBD), amino acids Gly204-Gly373 (from UniProt P14780 223-392) | binds | binds | – | –
pro-MMP-9 (purified human pro-matrix metalloproteinase-9) (from UniProt P14780 20-707) (enzyme) | – | – | binds | binds
